The test system of the test is L1210 leukemia ip in BDF1 mice, survival T/C. As to the kind of experiment: NCI In Vivo Anticancer Drug Screen. Data for tumor model L1210 Leukemia (intraperitoneal) in B6D2F1 (BDF1) mice. The settings on record: T/C endpoint: mean survival time, higher T/C = longer survival.
Where [1] appears, read: dose: 200.0 mg/kg/injection, schedule: Q01DX009 (ip), vehicle: saline with Tween-80.
Where [2] appears, read: dose: 400.0 mg/kg/injection, schedule: Q01DX001 (ip), vehicle: saline.
Where [3] appears, read: dose: 100.0 mg/kg/injection, schedule: Q01DX009 (ip), vehicle: saline.
[4] abbreviates: dose: 400.0 mg/kg/injection, schedule: Q04DX003 (ip), vehicle: saline.
[5] abbreviates: dose: 100.0 mg/kg/injection, schedule: Q04DX003 (ip), vehicle: Klucel (hydroxypropylcellulose) (HPC).
The mark [6] stands for this setting: dose: 400.0 mg/kg/injection, schedule: Q04DX003 (ip), vehicle: Klucel (hydroxypropylcellulose) (HPC).
Setting [7] is: dose: 200.0 mg/kg/injection, schedule: Q01DX001 (ip), vehicle: saline.
The mark [8] stands for this setting: dose: 200.0 mg/kg/injection, schedule: Q04DX003 (ip), vehicle: Klucel (hydroxypropylcellulose) (HPC).
[9] abbreviates: dose: 50.0 mg/kg/injection, schedule: Q01DX009 (ip), vehicle: saline.
Where [10] appears, read: dose: 200.0 mg/kg/injection, schedule: Q01DX Z (ip), vehicle: saline.

The list is a part of this screen's results and no random one: it is rich in T/C values a quarter to a half above the control, in often repeated tests (any T/C) and in doses without a T/C. Further doses and runs are listed elsewhere. T/C: endpoint of the treated group in % of that of the vehicle group. Some entries give survivors of the animals treated and no T/C: the source files T/C as zero there, which appears to mark a toxic dose or a test without result, not a measured value. Some doses without a T/C left all or most animals alive at the check, yet need not have been tolerated: survival well below the control is almost never listed, so the zero probably covers shortened survival too. Counts of survivors are from the toxicity check (mostly the fifth day) where no day follows; animals may have died later. Schedule codes are those of the source, taken here to give the interval after Q, in days (D) or hours (H), and the number of doses after X. Some schedule codes hold Z or #, which are not explained here. Some entries hold several experiments; their values stand side by side, smallest first. Where survival is the endpoint, the PubChem record calls one and a half times the control and up active, and a quarter to a half above the control has no call in these data; cut-offs in other NCI protocols can differ. Some T/C values are followed by the survivors on the day toxicity was checked, most often the fifth; where none is given, no animal had died by that day.

Turning to `COC1C(O)C(CO)OC1n1cnc2c(=S)nc(N)[nH]c21` (centres undefined), the T/C is, setting by setting: (dose: 50.0 mg/kg/injection, schedule: Q01DX001 (ip), vehicle: carboxymethylcellulose (CMC)) 141 % of control; (dose: 100.0 mg/kg/injection, schedule: Q01DX001 (ip), vehicle: carboxymethylcellulose (CMC)) 148 % of control; (dose: 177.0 mg/kg/injection, schedule: Q01DX001 (ip), vehicle: carboxymethylcellulose (CMC)) 148 % of control; (dose: 200.0 mg/kg/injection, schedule: Q01DX001 (ip), vehicle: carboxymethylcellulose (CMC)) 141 % of control.
In the case of `CCCCN=C(NCCCC)OCCCC`, the survivor count (dose: 25.0 mg/kg/injection, schedule: Q01DX Z (ip), vehicle: saline) is reported as 0 of 6.
As to `CN(C)C=NCCNc1ccc([N+](=O)[O-])cn1`, the survivor count under setting [1] is listed as 5 of 6 and the survivor count (dose: 400.0 mg/kg/injection, schedule: Q01DX001 (ip), vehicle: saline with Tween-80) is 1 of 6.
For `CCCC1(c2ccccc2)NC(=O)NC1=O` (centres undefined), the survivor count under setting [2] is reported as 2 of 4.
For the molecule `CC(CNC(=O)CCBr)NC(=O)CCBr` (centres undefined), the T/C runs as follows: (dose: 76.0 mg/kg/injection, schedule: Q01DX Z (ip), vehicle: carboxymethylcellulose (CMC)) 125 % of control; under setting [3], 135 % of control; (dose: 113.0 mg/kg/injection, schedule: Q01DX Z (ip), vehicle: carboxymethylcellulose (CMC)) 134 % of control; (dose: 170.0 mg/kg/injection, schedule: Q01DX Z (ip), vehicle: carboxymethylcellulose (CMC)) 148 % of control [5 of 6 alive]. The survivor count (dose: 254.0 mg/kg/injection, schedule: Q01DX Z (ip), vehicle: carboxymethylcellulose (CMC)) was 6 of 7.
As to `CC1(C)OCC(=NNC(N)=O)CO1`, the survivor count runs as follows: (dose: 200.0 mg/kg/injection, schedule: Q01DX009 (ip), vehicle: saline) 0 of 6; under setting [4], 1 of 6.
With `Cc1cc(C)c(N2C(=O)C=CC2=O)c(C)c1`, the survivor count is on record as 6 of 6 (dose: 3.13 mg/kg/injection, schedule: Q01DX009 (ip), vehicle: saline with Tween-80); 0 of 3 (dose: 100.0 mg/kg/injection, schedule: Q04DX002 (ip), vehicle: saline with Tween-80); 0 of 3 (dose: 200.0 mg/kg/injection, schedule: Q04DX002 (ip), vehicle: saline with Tween-80); 0 of 3 (dose: 400.0 mg/kg/injection, schedule: Q04DX002 (ip), vehicle: saline with Tween-80).
For `CN1CCN(C(=O)Nc2ccc(N=Nc3ccccc3)cc2)CC1`, the survivor count reads like this: under setting [5], 6 of 6; under setting [6], 3 of 6.
In the case of `COc1ccc(NCC(O)CN2CCCCC2)cc1` (centres undefined), the survivor count is listed as 2 of 6 under setting [7] and 0 of 6 under setting [2].
Consider `CC(=O)C(C(C)=O)C1C=CC=CC=C1`, for which the survivor count under setting [4] is 3 of 6.
`Cc1nc2nc(Cl)c(Cl)nc2[nH]1`: the survivor count by setting is: under setting [8], 3 of 6; under setting [6], 0 of 6.
Take `N/C(=N/O)c1cn(C2OC(CO)C(O)C2O)c2ncnc(NO)c12` (centres undefined): the T/C is 138 % of control (dose: 3.12 mg/kg/injection, schedule: Q01DX009 (ip), vehicle: saline); 130 % of control (dose: 6.25 mg/kg/injection, schedule: Q01DX009 (ip), vehicle: saline); 137 % of control (dose: 12.5 mg/kg/injection, schedule: Q01DX005 (ip), vehicle: saline). For the same molecule, the survivor count (dose: 25.0 mg/kg/injection, schedule: Q01DX005 (ip), vehicle: saline) is recorded as 6 of 6; the survivor count (dose: 50.0 mg/kg/injection, schedule: Q01DX005 (ip), vehicle: saline) is 1 of 6; the survivor count under setting [9] is 5 of 6; the survivor count (dose: 100.0 mg/kg/injection, schedule: Q01DX005 (ip), vehicle: saline) was 0 of 6; the survivor count under setting [3] is 0 of 6; the survivor count (dose: 200.0 mg/kg/injection, schedule: Q01DX005 (ip), vehicle: saline) is given as 0 of 6.
Regarding `NC(=Nc1ccc(N)cc1)C(N)=Nc1ccc(N)cc1`, the T/C under setting [1] is 137 % of control.
With `O=C(Cn1ccc(=O)[nH]c1=O)Nc1nccs1`, the survivor count is 0 of 6 under setting [9]; 2 of 6 (dose: 50.0 mg/kg/injection, schedule: Q04DX003 (ip), vehicle: saline); 2 of 6 (dose: 100.0 mg/kg/injection, schedule: Q04DX003 (ip), vehicle: saline); 0 of 6 (dose: 200.0 mg/kg/injection, schedule: Q04DX003 (ip), vehicle: saline); 0 of 6 under setting [4].
`CC(C)CCNc1ncnc2nc[nH]c12`: the survivor count (dose: 300.0 mg/kg/injection, schedule: Q01DX001 (ip), vehicle: saline) is on record as 3 of 6.
For the molecule `S=P(N1CCCCCC1)(N1CC1)N1CC1`, the T/C runs as follows: (dose: 50.0 mg/kg/injection, schedule: Q01DX Z (ip), vehicle: saline) 139 % of control; under setting [10], 131 % of control; (dose: 200.0 mg/kg/injection, schedule: Q01DX Z (oral), vehicle: saline) 130 % of control; (dose: 400.0 mg/kg/injection, schedule: Q01DX006 (iv), vehicle: saline) 130 % of control. Further, the survivor count (dose: 100.0 mg/kg/injection, schedule: Q01DX Z (ip), vehicle: saline) is 5 of 6; the survivor count under setting [10] is 5 of 6; the survivor count under setting [2] was 3 of 6; the survivor count (dose: 400.0 mg/kg/injection, schedule: Q01DX Z (ip), vehicle: saline) was 0 of 6 and 2 of 6; the survivor count (dose: 400.0 mg/kg/injection, schedule: Q01DX Z (oral), vehicle: saline) is 6 of 6; the survivor count (dose: 1000.0 mg/kg/injection, schedule: Q01DX001 (ip), vehicle: saline) is 6 of 6. The survivor count (dose: 2000.0 mg/kg/injection, schedule: Q01DX001 (ip), vehicle: saline) is 6 of 6.
Consider `CC(C)(C)N=O`, for which the survivor count (dose: 400.0 mg/kg/injection, schedule: Q01DX001 (ip), vehicle: Klucel (hydroxypropylcellulose) (HPC)) is on record as 0 of 6.
As for `CC(C)(c1ccccc1)C(C)(C)c1ccccc1`, where the note is “dose: 200.0 mg/kg/injection, schedule: Q01DX009 (ip), vehicle: Klucel (hydroxypropylcellulose) (HPC)”, the survivor count is recorded as 6 of 6.
Consider `[Mn+2].[NH-]CC(=O)O.[NH-]CC(=O)O`, for which the survivor count is on record as 1 of 6 under setting [7] and 0 of 6 under setting [2].
Turning to `CC(=O)Nc1cccc2c(C)ccnc12`, the survivor count under setting [5] is given as 0 of 6, the survivor count under setting [8] is 0 of 6 and the survivor count under setting [6] was 0 of 6.
As to `CN(N=O)C(=O)NCCNC(=O)N(C)N=O`, the T/C by setting is: (dose: 25.0 mg/kg/injection, schedule: Q01DX Z (ip), vehicle: carboxymethylcellulose (CMC)) 135 % of control; (dose: 50.0 mg/kg/injection, schedule: Q01DX Z (ip), vehicle: carboxymethylcellulose (CMC)) 132 % of control; (dose: 100.0 mg/kg/injection, schedule: Q01DX Z (ip), vehicle: carboxymethylcellulose (CMC)) 125 % of control. Besides, the survivor count by setting is: (dose: 200.0 mg/kg/injection, schedule: Q01DX Z (ip), vehicle: carboxymethylcellulose (CMC)) 5 of 6; (dose: 250.0 mg/kg/injection, schedule: Q01DX Z (ip), vehicle: carboxymethylcellulose (CMC)) 5 of 6; (dose: 300.0 mg/kg/injection, schedule: Q01DX Z (ip), vehicle: carboxymethylcellulose (CMC)) 4 of 6.
In the case of `Cc1ccc(NC(=O)Nc2ccc(C)c(NC(=O)Nc3ccc(C)cc3C)c2)c(C)c1`, the survivor count (dose: 100.0 mg/kg/injection, schedule: Q01DX009 (ip), vehicle: saline with Tween-80) is given as 6 of 6.
As to `O=[N+]([O-])c1cccc(C=Nc2ccccc2Cl)c1`, the survivor count (dose: 200.0 mg/kg/injection, schedule: Q01DX001 (ip), vehicle: Klucel (hydroxypropylcellulose) (HPC)) is given as 6 of 6.
For the molecule `CCOC(=O)/C(C#N)=N/O`, where the note is “dose: 75.0 mg/kg/injection, schedule: Q01DX009 (ip), vehicle: saline”, the survivor count is given as 3 of 6.

Values taken from PubChem BioAssay AID248 (DTP/NCI, 2004).
